# In publication PMC6277087:
# Amino acid sequences for entries named in this document (tags omitted). A change or cut given only in a name is not applied to a line headed by its entry.
# UniProt Q9VAC4: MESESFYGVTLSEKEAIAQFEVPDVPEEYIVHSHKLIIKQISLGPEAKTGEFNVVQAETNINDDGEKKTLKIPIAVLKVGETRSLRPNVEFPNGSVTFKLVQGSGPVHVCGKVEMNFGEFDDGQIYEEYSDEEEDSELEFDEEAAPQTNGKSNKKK
# Results are given in words; binding and its absence hold for the method and conditions named. For part of these data: A result given as binding can be weak or reduced; the word gives no strength. For part of these data: In cells and extracts the contact can be indirect. For part of these data: Tags and fused reporters may be left off the sequences shown.
# T1: NLP V79E, V5-tagged (Drosophila) (UniProt Q27415)
# T1 sequence: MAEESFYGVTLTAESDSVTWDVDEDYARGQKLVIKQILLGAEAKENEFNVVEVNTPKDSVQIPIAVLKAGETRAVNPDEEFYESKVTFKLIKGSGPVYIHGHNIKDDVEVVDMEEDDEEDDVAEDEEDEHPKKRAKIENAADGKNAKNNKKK
# T2: NLP F6E, V5-tagged (Drosophila) (UniProt Q27415)
# T2 sequence: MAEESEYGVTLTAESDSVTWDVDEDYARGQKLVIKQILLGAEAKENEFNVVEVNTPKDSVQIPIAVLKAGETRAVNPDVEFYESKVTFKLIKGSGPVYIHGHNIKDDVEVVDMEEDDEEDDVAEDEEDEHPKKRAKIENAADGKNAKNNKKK
# T3: NLP F6E/I62E/V79E triple mutant, V5-tagged (Drosophila) (UniProt Q27415)
# T3 sequence: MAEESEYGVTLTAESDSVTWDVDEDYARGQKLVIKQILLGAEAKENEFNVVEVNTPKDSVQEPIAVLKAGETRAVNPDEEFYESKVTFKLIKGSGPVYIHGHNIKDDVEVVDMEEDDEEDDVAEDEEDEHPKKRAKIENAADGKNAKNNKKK
# T4: Nucleoplasmin-Like Protein, V5-tagged (NLP-V5) (Drosophila) (UniProt Q27415)
# T4 sequence: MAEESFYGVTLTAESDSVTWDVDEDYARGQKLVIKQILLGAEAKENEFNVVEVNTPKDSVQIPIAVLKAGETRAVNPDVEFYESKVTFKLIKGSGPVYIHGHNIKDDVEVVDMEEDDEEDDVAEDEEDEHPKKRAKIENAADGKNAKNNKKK
# T5: NLP I62E, V5-tagged (Drosophila) (UniProt Q27415)
# T5 sequence: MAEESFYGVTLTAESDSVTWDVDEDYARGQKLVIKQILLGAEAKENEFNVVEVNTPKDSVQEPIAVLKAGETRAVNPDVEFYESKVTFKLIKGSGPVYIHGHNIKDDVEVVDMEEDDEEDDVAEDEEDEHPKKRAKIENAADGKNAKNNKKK
# T6: Nucleoplasmin-Like Protein (NLP), endogenous (Drosophila (endogenous in Schneider S2 cells)) (UniProt Q27415)
# T6 sequence: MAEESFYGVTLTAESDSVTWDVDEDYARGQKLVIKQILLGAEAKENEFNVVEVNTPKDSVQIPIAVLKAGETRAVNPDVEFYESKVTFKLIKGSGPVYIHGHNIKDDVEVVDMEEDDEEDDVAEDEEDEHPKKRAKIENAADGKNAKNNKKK
# Legend:
# [1] = target: T1, NLP V79E, V5-tagged (Drosophila); assay: co-IP; S2 cells co-transfected with V5- and HA-tagged constructs; nuclear lysate with Benzonase, 300 mM then 150 mM NaCl, 0.5% IGEPAL CA-630; rabbit anti-V5 antibody and Protein A Dynabeads; western blot with anti-V5 and anti-HA
# [2] = target: T2, NLP F6E, V5-tagged (Drosophila); assay: as above
# [3] = target: T3, NLP F6E/I62E/V79E triple mutant, V5-tagged (Drosophila); assay: as above
# [4] = target: T4, Nucleoplasmin-Like Protein, V5-tagged (NLP-V5) (Drosophila); assay: as above
# [5] = target: T5, NLP I62E, V5-tagged (Drosophila); assay: as above
# [6] = target: T6, Nucleoplasmin-Like Protein (NLP), endogenous (Drosophila (endogenous in Schneider S2 cells)); assay: SEC; total S2 cell extract on Superdex200 10/300 GL in 50 mM Tris-HCl pH 8, 150 mM NaCl, 1 mM EDTA, 1% reduced Triton X-100; fractions blotted with anti-NLP and anti-NPH
# [7] = target: T1, NLP V79E, V5-tagged (Drosophila); assay: co-IP; S2 cells transfected with V5-tagged constructs; nuclear lysate with Benzonase, 300 mM then 150 mM NaCl, 0.5% IGEPAL CA-630; Anti-V5 Agarose Affinity Gel overnight at 4°C; endogenous HMR detected by western blot
# [8] = target: T2, NLP F6E, V5-tagged (Drosophila); assay: as above
# [9] = target: T3, NLP F6E/I62E/V79E triple mutant, V5-tagged (Drosophila); assay: as above
# [10] = target: T4, Nucleoplasmin-Like Protein, V5-tagged (NLP-V5) (Drosophila); assay: as above
# [11] = target: T5, NLP I62E, V5-tagged (Drosophila); assay: as above
# [12] = target: Nucleophosmin, V5-tagged (NPH-V5) (Drosophila) (UniProt Q9VAC4); assay: co-IP; S2 cells co-transfected with V5- and HA-tagged constructs; nuclear lysate with Benzonase, 300 mM then 150 mM NaCl, 0.5% IGEPAL CA-630; rabbit anti-V5 antibody and Protein A Dynabeads; western blot with anti-V5 and anti-HA
molecule,measurement,setting,value
"Nucleophosmin, HA-tagged (NPH-HA) (from UniProt Q9VAC4)",binding,[1],no binding
same,binding,[2],no binding
same,binding,[3],no binding
same,binding,[4],binds
same,binding,[5],binds weakly
"Nucleophosmin (NPH), endogenous",binding,[6],binds
"Hybrid Male Rescue (HMR), endogenous",binding,[7],no binding
same,binding,[8],no binding
same,binding,[9],no binding
same,binding,[10],binds
same,binding,[11],binds weakly
"Nucleoplasmin-Like Protein, HA-tagged (NLP-HA) (protein, UniProt Q27415 1-152) MAEESFYGVTLTAESDSVTWDVDEDYARGQKLVIKQILLGAEAKENEFNVVEVNTPKDSVQIPIAVLKAGETRAVNPDVEFYESKVTFKLIKGSGPVYIHGHNIKDDVEVVDMEEDDEEDDVAEDEEDEHPKKRAKIENAADGKNAKNNKKK",binding,[12],binds
